This data set in a line: in vitro. The settings on record: African green monkey.

In turn, `CCC(CC)COC(=O)[C@H](C)N[P@](=O)(OC[C@H]1O[C@@](C#N)(c2ccc3c(N)ncnn23)[C@H](O)[C@@H]1O)Oc1ccccc1` [Remdesivir, reference compound] returned a CC50 of over 20 µM.

For the origin of these results see US20230330134A1, “METHOD OF PROPHYLAXIS OF CORONAVIRUS AND/OR RESPIRATORY SYNCYTIAL VIRUS INFECTION” (Starpharma Pty Ltd., priority 2020, published 2023).
